Results deposited as PubChem BioAssay AID1259425 (University of Nebraska Medical Center, 2018).
In all, the deposit lists about 14,000 reagents; below is a part drawn at random. Not stated in the record: the time to read-out.

Assay: 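Compare each knockdown with KSR1 silencing using changes in marker transcripts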 (primary screen)
Cell system: HCT116 human colon cancer cells
Knock-down reagent: siRNA pool against human genes, 50 nM siRNA
Measurement: 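mRNA of six signature genes measured together by branched-DNA assay after 50 nM siRNA pool, blank removed, divided by geometric mean of two housekeeping genes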
Reading the numbers: BNIP3L mRNA: higher = more BNIP3L transcript after knockdown; NDRG1 mRNA: higher = more NDRG1 transcript after knockdown; BNIP3 mRNA: higher = more BNIP3 transcript after knockdown; ALDOC mRNA: higher = more ALDOC transcript after knockdown; ACSL5 mRNA: higher = more ACSL5 transcript after knockdown

gene symbol | BNIP3L mRNA, set 1 | NDRG1 mRNA, set 1 | BNIP3 mRNA, set 1 | ALDOC mRNA, set 1 | ACSL5 mRNA, set 1
NR6A1 (nuclear receptor subfamily 6 group A member 1) | 0.104 | 0.169 | 0.252 | 0.00465 | 0.0811
MRPS12 (mitochondrial ribosomal protein S12) | 0.117 | 0.242 | 0.249 | 0.024 | 0.207
MYLIP (myosin regulatory light chain interacting protein) | 0.134 | 0.141 | 0.386 | 0.0343 | 0.166
PXK (PX domain containing serine/threonine kinase like) | 0.0753 | 0.111 | 0.35 | 0.00319 | 0.299
DR1 (down-regulator of transcription 1) | 0.0748 | 0.299 | 0.243 | 0.0315 | 0.125
CNGA2 (cyclic nucleotide gated channel subunit alpha 2) | 0.322 | 0.442 | 0.735 | 0.0741 | 0.214
PES1 (pescadillo ribosomal biogenesis factor 1) | 0.107 | 0.199 | 0.319 | 0.0434 | 0.198
HSFY1 (heat shock transcription factor Y-linked 1) | 0.0355 | 0.0527 | 0.343 | 0.00475 | 0.112
ARHGEF39 (Rho guanine nucleotide exchange factor 39) | 0.127 | 0.119 | 0.275 | 0.0209 | 0.0947
TIMELESS (timeless circadian regulator) | 0.0899 | 0.0632 | 0.207 | 0.00823 | 0.223
CEP76 (centrosomal protein 76) | 0.109 | 0.204 | 0.242 | 0.06 | 0.0952
RFWD3 (ring finger and WD repeat domain 3) | 0.182 | 0.16 | 0.251 | 0.0504 | 0.129
METTL26 (methyltransferase like 26) | 0.142 | 0.33 | 0.325 | 0.118 | 0.458
CCNJL (cyclin J like) | 0.34 | 1.27 | 0.67 | 0.104 | 0.142
CEP164 (centrosomal protein 164) | 0.19 | 0.128 | 0.262 | 0.00959 | 0.0562
GRAMD4 (GRAM domain containing 4) | 0.143 | 0.44 | 0.394 | 0.0274 | 0.142
TTYH1 (tweety family member 1) | 0.212 | 0.491 | 0.356 | 0.0529 | 0.491
SCN2A (sodium voltage-gated channel alpha subunit 2) | 0.0359 | 0.211 | 0.234 | 0.0136 | 0.253
CSNK1A1L (casein kinase 1 alpha 1 like) | 0.0548 | 0.609 | 0.271 | 0.00887 | 0.23
PDS5B (PDS5 cohesin associated factor B) | 0.135 | 0.236 | 0.34 | 0.0142 | 0.229
TCERG1 (transcription elongation regulator 1) | 0.131 | 0.0873 | 0.282 | 0.0252 | 0.166
LRRC36 (leucine rich repeat containing 36) | 0.123 | 0.239 | 0.349 | 0.0306 | 0.221
SGPL1 (sphingosine-1-phosphate lyase 1) | 0.275 | 0.106 | 0.58 | 0.0717 | 0.0645
RACK1 (receptor for activated C kinase 1) | 0.0556 | 0.0871 | 0.489 | 0.0125 | 0.0737
ENTPD5 (ectonucleoside triphosphate diphosphohydrolase 5) | 0.112 | 0.248 | 0.298 | 0.0058 | 0.397
DCAF6 (DDB1 and CUL4 associated factor 6) | 0.324 | 0.42 | 0.524 | 0.0553 | 0.138
MPRIP (myosin phosphatase Rho interacting protein) | 0.131 | 0.246 | 0.215 | 0.0262 | 0.0678
BLOC1S1 (biogenesis of lysosomal organelles complex 1 subunit 1) | 0.157 | 0.163 | 0.534 | 0.056 | 0.211
ZNF160 (zinc finger protein 160) | 0.162 | 0.103 | 0.629 | 0.0133 | 0.156
MGRN1 (mahogunin ring finger 1) | 0.0856 | 0.138 | 0.308 | 0.0301 | 0.182
JRKL (JRK like) | 0.167 | 0.157 | 0.317 | 0.0193 | 0.179
ZNF528 (zinc finger protein 528) | 0.111 | 0.098 | 0.306 | 0.0169 | 0.216
LINC01749 (long independently transcribed non-coding RNA 1749) | 0.0676 | 0.241 | 0.217 | 0.0304 | 0.174
PKDREJ (polycystin family receptor for egg jelly) | 0.0956 | 0.102 | 0.287 | 0.0266 | 0.124
NEDD9 | 0.115 | 0.424 | 0.28 | 0.0202 | 0.353
TEX13B (testis expressed 13B) | 0.187 | 0.247 | 0.659 | 0.063 | 0.307
INSL4 (insulin like 4) | 0.0972 | 0.227 | 0.243 | 0.011 | 0.244
KCNAB2 | 0.0795 | 0.376 | 0.563 | 0.0152 | 0.0881
ZDHHC12 (zDHHC palmitoyltransferase 12) | 0.109 | 0.209 | 0.363 | 0.0314 | 0.216
RAB36 (RAB36, member RAS oncogene family) | 0.0668 | 0.126 | 0.304 | 0.0315 | 0.158
CRH (corticotropin releasing hormone) | 0.0752 | 0.128 | 0.263 | 0.0188 | 0.193
MRPS16 (mitochondrial ribosomal protein S16) | 1.9 | 3.74 | 3.1 | 0.665 | 0.257
NYNRIN (NYN domain and retroviral integrase containing) | 0.111 | 0.689 | 0.23 | 0.0565 | 0.668
POLI (DNA polymerase iota) | 0.167 | 0.0773 | 0.351 | 0.0225 | 0.122
CPSF6 (cleavage and polyadenylation specific factor 6) | 0.0754 | 1.03 | 0.426 | 0.029 | 0.233
STMN1 (stathmin 1) | 0.0829 | 0.252 | 0.249 | 0.0184 | 0.186
TRMT2A (tRNA methyltransferase 2A) | 0.135 | 0.684 | 0.344 | 0.0324 | 0.341
TRIOBP (TRIO and F-actin binding protein) | 0.0916 | 0.269 | 0.25 | 0.00635 | 0.113
LDHB (lactate dehydrogenase B) | 0.114 | 0.313 | 0.317 | 0.019 | 0.288
ITPKA (inositol-trisphosphate 3-kinase A) | 0.183 | 0.557 | 0.245 | 0.00623 | 0.336
CXCL3 (C-X-C motif chemokine ligand 3) | 0.247 | 0.137 | 0.28 | 0.0604 | 0.121
PAPPA2 (pappalysin 2) | 0.111 | 0.0995 | 0.291 | 0.0219 | 0.163
FNBP4 (formin binding protein 4) | 0.158 | 0.726 | 0.556 | 0.0385 | 0.286
SDR39U1 (short chain dehydrogenase/reductase family 39U member 1) | 0.194 | 0.168 | 0.366 | 0.0375 | 0.156
GUCY2C (guanylate cyclase 2C) | 0.0679 | 0.134 | 0.305 | 0.0171 | 0.316
PRM3 (protamine 3) | 0.132 | 0.0753 | 0.204 | 0.0326 | 0.176
MYBL1 (MYB proto-oncogene like 1) | 0.072 | 0.111 | 0.22 | 0.00452 | 0.209
ARFGAP1 (ARF GTPase activating protein 1) | 0.0721 | 0.0563 | 0.241 | 0.0269 | 0.0875
NME5 (NME/NM23 family member 5) | 0.0517 | 0.0928 | 0.211 | 0.00283 | 0.14
NPM2 (nucleophosmin/nucleoplasmin 2) | 0.143 | 0.293 | 0.382 | 0.0462 | 0.257
MAD1L1 (mitotic arrest deficient 1 like 1) | 0.207 | 0.198 | 0.334 | 0.00812 | 0.196
RANBP9 (RAN binding protein 9) | 0.0754 | 0.102 | 0.346 | 0.0301 | 0.13
VCAM1 (vascular cell adhesion molecule 1) | 0.118 | 0.0556 | 0.243 | 0.00104 | 0.0752
